The values below come from publication PMC12575831.

Results are given in words; binding and its absence hold for the method and conditions named. Binding seen in cells or lysates may run through a third protein. Some results given as binding are weak or reduced against the parent protein; the word gives no strength.

In this assay the target is T1, LARP7 (human (endogenous in HCT116)) (UniProt Q4G0J3).
T1 sequence: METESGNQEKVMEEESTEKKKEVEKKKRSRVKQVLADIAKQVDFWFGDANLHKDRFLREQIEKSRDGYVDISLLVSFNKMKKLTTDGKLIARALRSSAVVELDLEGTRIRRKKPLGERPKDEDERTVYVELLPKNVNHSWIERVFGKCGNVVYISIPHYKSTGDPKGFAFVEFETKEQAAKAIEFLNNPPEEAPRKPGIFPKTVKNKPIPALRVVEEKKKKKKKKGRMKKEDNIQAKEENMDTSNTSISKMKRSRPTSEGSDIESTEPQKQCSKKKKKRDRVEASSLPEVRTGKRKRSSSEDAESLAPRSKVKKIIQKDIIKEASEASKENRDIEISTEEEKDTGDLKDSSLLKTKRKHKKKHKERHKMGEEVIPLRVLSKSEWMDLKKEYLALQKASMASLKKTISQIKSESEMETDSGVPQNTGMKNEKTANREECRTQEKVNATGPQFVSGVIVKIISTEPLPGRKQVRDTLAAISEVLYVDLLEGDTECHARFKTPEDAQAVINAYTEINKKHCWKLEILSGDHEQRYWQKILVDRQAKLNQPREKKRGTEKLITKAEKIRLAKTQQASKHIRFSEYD
As to the kind of experiment: co-IP; endogenous proteins in HCT116 lysate (150 mM NaCl, 50 mM Tris-HCl pH 7.5, 1% NP-40, protease inhibitor, SUPERase-In); antibody against LARP7, HEXIM1 or MEPCE 2 h at 4 °C, Protein A beads, western blot; cells treated with control siRNA or PUS7 siRNA (PUS7 KD) before lysis.

B1: hnRNP Q (protein, UniProt O60506 1-623)
chain: MATEHVNGNGTEEPMDTTSAVIHSENFQTLLDAGLPQKVAEKLDEIYVAGLVAHSDLDERAIEALKEFNEDGALAVLQQFKDSDLSHVQNKSAFLCGVMKTYRQREKQGTKVADSSKGPDEAKIKALLERTGYTLDVTTGQRKYGGPPPDSVYSGQQPSVGTEIFVGKIPRDLFEDELVPLFEKAGPIWDLRLMMDPLTGLNRGYAFVTFCTKEAAQEAVKLYNNHEIRSGKHIGVCISVANNRLFVGSIPKSKTKEQILEEFSKVTEGLTDVILYHQPDDKKKNRGFCFLEYEDHKTAAQARRRLMSGKVKVWGNVGTVEWADPIEDPDPEVMAKVKVLFVRNLANTVTEEILEKAFSQFGKLERVKKLKDYAFIHFDERDGAVKAMEEMNGKDLEGENIEIVFAKPPDQKRKERKAQRQAAKNQMYDDYYYYGPPHMPPPTRGRGRGGRGGYGYPPDYYGYEDYYDYYGYDYHNYRGGYEDPYYGYEDFQVGARGRGGRGARGAAPSRGRGAAPPRGRAGYSQRGGPGSARGVRGARGGAQQQRGRGVRGARGGRGGNVGGKRKADGYNQPDSKRRQTNNQNWGSQPIAQQPLQGGDHSGNYGYKSENQEFYQDTFGQQWK
Turning to B1, the binding entry is “binds”.

B2: hnRNP R (protein, UniProt O43390 1-633)
chain: MANQVNGNAVQLKEEEEPMDTSSVTHTEHYKTLIEAGLPQKVAERLDEIFQTGLVAYVDLDERAIDALREFNEEGALSVLQQFKESDLSHVQNKSAFLCGVMKTYRQREKQGSKVQESTKGPDEAKIKALLERTGYTLDVTTGQRKYGGPPPDSVYSGVQPGIGTEVFVGKIPRDLYEDELVPLFEKAGPIWDLRLMMDPLSGQNRGYAFITFCGKEAAQEAVKLCDSYEIRPGKHLGVCISVANNRLFVGSIPKNKTKENILEEFSKVTEGLVDVILYHQPDDKKKNRGFCFLEYEDHKSAAQARRRLMSGKVKVWGNVVTVEWADPVEEPDPEVMAKVKVLFVRNLATTVTEEILEKSFSEFGKLERVKKLKDYAFVHFEDRGAAVKAMDEMNGKEIEGEEIEIVLAKPPDKKRKERQAARQASRSTAYEDYYYHPPPRMPPPIRGRGRGGGRGGYGYPPDYYGYEDYYDDYYGYDYHDYRGGYEDPYYGYDDGYAVRGRGGGRGGRGAPPPPRGRGAPPPRGRAGYSQRGAPLGPPRGSRGGRGGPAQQQRGRGSRGSRGNRGGNVGGKRKADGYNQPDSKRRQTNNQQNWGSQPIAQQPLQQGGDYSGNYGYNNDNQEFYQDTYGQQWK
Turning to B2, the binding result is given as “binds”.
